Results: patent US20090208508A1, “NOVEL USE OF UBIQUITIN C-TERMINAL HYDROLASE-L1” (SK CORPORATION, priority 2005, published 2009)
No constants are given. Whether binding was seen depends on the method and setting. For part of these data: Binding seen in cells or lysates may run through a third protein. Some entries that bind do so weakly or less than the wild type.

Amino acid sequences for entries named in this document (tags omitted). A change or cut given only in a name is not applied to a line headed by its entry. Residues count along the entry.
UniProt P27361, residues 2-379: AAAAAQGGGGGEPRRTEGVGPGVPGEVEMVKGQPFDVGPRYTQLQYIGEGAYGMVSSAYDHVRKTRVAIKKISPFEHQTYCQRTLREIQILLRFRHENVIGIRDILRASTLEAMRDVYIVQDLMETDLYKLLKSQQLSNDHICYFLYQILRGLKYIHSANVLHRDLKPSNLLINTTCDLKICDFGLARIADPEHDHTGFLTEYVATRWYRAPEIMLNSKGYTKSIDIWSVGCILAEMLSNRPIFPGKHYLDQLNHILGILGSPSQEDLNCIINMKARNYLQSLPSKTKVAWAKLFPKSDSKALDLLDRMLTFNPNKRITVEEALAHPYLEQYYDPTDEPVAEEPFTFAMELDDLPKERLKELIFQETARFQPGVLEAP
UniProt P09936: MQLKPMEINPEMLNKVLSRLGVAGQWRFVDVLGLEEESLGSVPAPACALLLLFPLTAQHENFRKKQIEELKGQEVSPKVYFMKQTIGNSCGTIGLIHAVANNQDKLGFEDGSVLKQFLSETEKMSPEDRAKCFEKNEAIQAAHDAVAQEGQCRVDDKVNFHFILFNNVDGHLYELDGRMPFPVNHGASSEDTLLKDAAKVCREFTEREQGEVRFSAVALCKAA

Tests used:
[1] = target: 44 kDa protein kinase, mitogen-activated protein kinase (UniProt P27361); assay: Western blot of the UCH-L1 immunoprecipitate with anti-ERK antibody (FIG. 9)
[2] = target: 44 kDa protein kinase, mitogen-activated protein kinase (UniProt P27361); assay: co-immunoprecipitation and MALDI-TOF MS, HEK293T cells
[3] = target: 44 kDa protein kinase, mitogen-activated protein kinase (UniProt P27361); assay: co-immunoprecipitation with Flag-UCH-L1 from transfected HEK293T cells, 2D-PAGE, MALDI-TOF MS (spot number not given, stands under spot 7)

binding [1]: binds
binding [2]: binds
binding [3]: binds
Substance: flag-tagged UCH-L1 (Ubiquitin C-terminal hydrolase-L1) expressed from pFlag-CMV-2-UCH-L1 (from UniProt P09936 1-220) (enzyme)
